From publication PMC5603727 come the findings set out here.

Positions count from the first letter of the chain named. Construct, isoform or probe ends are uncertain for at least one entry. For some of these results: A weaker result is weaker than the reference pair of the same experiment. For some of these results: Protein sequences can lack the tags named with them.

Holding throughout (test): EMSA
Conditions in all cases: tRNA competitor; EMSA: 20 mM HEPES pH 7.4, 50 mM NaCl, 1 mM MgCl2, 1 mM DTT, 1 ug/ul BSA, 2.5 ug/ul yeast tRNA, 500 pM RNA, RT 10 min or ice 20 min; recombinant protein; label: 32P in EMSA
For orientation: A gel shift assay detects complexes by their altered migration in electrophoresis.

One data set concerns the target ROQ Ser253 mutant (UniProt Q4VGL6).
The next data set addresses T1, ROQ Y250A (UniProt Q4VGL6).
T1 sequence (looked up, limits assumed): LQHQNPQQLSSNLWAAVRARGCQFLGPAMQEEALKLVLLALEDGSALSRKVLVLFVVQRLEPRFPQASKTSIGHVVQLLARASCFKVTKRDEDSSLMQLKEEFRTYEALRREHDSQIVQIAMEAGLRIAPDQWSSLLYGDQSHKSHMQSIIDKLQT

The next data set has as its target T2, ROQ K239A (UniProt Q4VGL6).
T2 sequence (looked up, limits assumed): T1 sequence (looked up, limits assumed) with K69A, A80Y

In the next data set the target is T3, ROQ R260A (UniProt Q4VGL6).
T3 sequence (looked up, limits assumed): T1 sequence (looked up, limits assumed) with A80Y, R90A

The target of the next data set is T4, ROQ S265Y (UniProt Q4VGL6).
T4 sequence (looked up, limits assumed): T1 sequence (looked up, limits assumed) with A80Y, S95Y

The next data set concerns the target T5, ROQ K259A (UniProt Q4VGL6).
T5 sequence (looked up, limits assumed): T1 sequence (looked up, limits assumed) with A80Y, K89A

In another data set the target is T6, ROQ K220A (UniProt Q4VGL6).
T6 sequence (looked up, limits assumed): T1 sequence (looked up, limits assumed) with K50A, A80Y

As to “UCCACACCGUUCUAGGUGCUGG [Ox40 ADE-like SL]”, the binding result is on record as “binds” with ROQ Ser253 mutant; “binds more weakly” in the data set with ROQ Y250A; “binds more weakly” with ROQ K239A; “binds more weakly” in the data set with ROQ R260A; “binds more weakly” with ROQ S265Y; “binds more weakly” in the data set with ROQ K259A. The binding result in the data set with ROQ K220A is reported as “binds more weakly”.
